This is one part of the list. The data scatter; read single values as rough.
These targets were tested with ClCC(=O)N[C@@H]1CCCc2ccccc12 (assay: log2 mean competition ratio of IA-DTB cysteine labelling (DMSO/compound) (log2 ratio); higher = stronger cysteine engagement by compound). Conditions: 50 µM; treatment time: 4 h; cell line lysate: HEK293T.
Protocol: (§1)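 IA-DTB competitive cysteine chemoproteomics in HEK293T RIPA lysate. Lysates were treated with compound 29 or 30 at 50 or 200 µM for 4 h, then IA-DTB (500 µM, 1 h), trypsin-digested, NeutrAvidin-enriched and analysed by diaPASEF. Competition ratio = intensity DMSO / intensity compound (n=4 treated, n=64 DMSO); binding: mean log2 CR ≥ 1 and p ≤ 0.05 plus QC filters. Target is the cysteine site.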

By UniProt entry, the sequences of proteins in these tests, tags left out. Where a name states a change or a piece, a line headed by the entry shows the natural chain unless it says otherwise. Residues count along the entry.
UniProt Q8N201, whole entry, looked up: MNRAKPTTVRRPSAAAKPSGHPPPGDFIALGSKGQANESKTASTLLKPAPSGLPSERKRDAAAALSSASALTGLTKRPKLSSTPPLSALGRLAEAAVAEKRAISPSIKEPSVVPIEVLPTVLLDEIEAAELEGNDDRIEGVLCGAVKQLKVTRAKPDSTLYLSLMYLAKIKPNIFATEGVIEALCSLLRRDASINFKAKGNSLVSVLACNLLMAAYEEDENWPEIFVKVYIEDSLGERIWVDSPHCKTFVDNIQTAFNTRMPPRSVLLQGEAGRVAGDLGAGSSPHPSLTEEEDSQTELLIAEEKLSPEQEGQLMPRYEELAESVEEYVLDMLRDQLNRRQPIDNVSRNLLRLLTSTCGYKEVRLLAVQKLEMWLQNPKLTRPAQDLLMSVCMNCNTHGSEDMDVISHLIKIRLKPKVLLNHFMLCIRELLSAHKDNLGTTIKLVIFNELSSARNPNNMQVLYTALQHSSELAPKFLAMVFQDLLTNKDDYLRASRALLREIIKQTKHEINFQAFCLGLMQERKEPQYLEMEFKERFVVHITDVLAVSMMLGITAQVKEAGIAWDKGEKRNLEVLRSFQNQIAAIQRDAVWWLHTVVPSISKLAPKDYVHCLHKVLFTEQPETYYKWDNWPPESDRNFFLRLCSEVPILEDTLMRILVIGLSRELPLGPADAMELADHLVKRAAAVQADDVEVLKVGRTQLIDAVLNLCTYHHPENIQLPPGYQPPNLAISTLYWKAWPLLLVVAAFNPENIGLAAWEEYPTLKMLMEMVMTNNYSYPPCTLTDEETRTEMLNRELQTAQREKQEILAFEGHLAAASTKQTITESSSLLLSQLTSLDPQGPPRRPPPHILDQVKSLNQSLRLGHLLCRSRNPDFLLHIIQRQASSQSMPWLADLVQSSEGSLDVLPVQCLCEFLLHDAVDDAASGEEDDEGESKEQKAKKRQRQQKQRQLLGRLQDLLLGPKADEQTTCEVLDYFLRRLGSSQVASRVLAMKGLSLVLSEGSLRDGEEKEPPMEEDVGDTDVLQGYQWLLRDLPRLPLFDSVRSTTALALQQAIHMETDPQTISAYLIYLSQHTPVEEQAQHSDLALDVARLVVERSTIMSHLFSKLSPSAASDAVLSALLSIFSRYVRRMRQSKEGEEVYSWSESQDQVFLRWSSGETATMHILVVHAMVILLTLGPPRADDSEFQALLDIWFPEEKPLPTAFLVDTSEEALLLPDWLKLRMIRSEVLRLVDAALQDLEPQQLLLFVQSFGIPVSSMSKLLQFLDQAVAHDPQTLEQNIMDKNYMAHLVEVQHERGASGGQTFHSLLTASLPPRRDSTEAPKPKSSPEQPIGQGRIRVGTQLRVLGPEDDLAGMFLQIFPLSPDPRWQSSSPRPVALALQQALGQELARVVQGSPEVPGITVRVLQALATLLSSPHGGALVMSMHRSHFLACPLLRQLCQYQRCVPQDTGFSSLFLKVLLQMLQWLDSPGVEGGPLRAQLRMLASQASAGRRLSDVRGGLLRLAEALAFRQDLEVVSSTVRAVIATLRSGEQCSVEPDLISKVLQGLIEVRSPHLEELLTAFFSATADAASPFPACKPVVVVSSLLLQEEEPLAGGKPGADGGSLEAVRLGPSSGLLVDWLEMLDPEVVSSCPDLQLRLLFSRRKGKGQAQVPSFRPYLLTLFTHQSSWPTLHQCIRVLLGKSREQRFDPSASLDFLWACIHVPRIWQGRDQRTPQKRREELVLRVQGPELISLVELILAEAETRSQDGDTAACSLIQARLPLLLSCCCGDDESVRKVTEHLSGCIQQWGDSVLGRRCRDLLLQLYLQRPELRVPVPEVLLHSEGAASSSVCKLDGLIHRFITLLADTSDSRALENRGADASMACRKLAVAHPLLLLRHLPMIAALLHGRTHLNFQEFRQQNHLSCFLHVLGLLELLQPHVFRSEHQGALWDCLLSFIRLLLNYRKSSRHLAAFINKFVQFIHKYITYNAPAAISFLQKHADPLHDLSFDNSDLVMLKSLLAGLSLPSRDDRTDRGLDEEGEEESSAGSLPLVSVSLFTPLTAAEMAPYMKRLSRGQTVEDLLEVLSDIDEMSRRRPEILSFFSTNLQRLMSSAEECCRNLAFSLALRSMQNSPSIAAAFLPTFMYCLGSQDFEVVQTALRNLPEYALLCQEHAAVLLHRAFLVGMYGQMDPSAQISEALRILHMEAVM
UniProt Q8NBQ5: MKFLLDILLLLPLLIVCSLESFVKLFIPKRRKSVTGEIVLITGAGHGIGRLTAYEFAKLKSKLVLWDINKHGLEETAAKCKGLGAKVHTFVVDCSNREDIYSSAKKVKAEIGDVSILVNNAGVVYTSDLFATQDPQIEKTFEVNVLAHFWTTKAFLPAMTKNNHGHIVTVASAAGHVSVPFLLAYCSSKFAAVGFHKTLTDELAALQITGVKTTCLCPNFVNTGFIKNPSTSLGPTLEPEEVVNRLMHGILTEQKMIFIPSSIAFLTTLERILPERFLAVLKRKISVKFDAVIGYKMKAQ
UniProt Q9H0C8, 119-144: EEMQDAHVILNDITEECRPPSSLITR
UniProt O95373, whole entry, looked up: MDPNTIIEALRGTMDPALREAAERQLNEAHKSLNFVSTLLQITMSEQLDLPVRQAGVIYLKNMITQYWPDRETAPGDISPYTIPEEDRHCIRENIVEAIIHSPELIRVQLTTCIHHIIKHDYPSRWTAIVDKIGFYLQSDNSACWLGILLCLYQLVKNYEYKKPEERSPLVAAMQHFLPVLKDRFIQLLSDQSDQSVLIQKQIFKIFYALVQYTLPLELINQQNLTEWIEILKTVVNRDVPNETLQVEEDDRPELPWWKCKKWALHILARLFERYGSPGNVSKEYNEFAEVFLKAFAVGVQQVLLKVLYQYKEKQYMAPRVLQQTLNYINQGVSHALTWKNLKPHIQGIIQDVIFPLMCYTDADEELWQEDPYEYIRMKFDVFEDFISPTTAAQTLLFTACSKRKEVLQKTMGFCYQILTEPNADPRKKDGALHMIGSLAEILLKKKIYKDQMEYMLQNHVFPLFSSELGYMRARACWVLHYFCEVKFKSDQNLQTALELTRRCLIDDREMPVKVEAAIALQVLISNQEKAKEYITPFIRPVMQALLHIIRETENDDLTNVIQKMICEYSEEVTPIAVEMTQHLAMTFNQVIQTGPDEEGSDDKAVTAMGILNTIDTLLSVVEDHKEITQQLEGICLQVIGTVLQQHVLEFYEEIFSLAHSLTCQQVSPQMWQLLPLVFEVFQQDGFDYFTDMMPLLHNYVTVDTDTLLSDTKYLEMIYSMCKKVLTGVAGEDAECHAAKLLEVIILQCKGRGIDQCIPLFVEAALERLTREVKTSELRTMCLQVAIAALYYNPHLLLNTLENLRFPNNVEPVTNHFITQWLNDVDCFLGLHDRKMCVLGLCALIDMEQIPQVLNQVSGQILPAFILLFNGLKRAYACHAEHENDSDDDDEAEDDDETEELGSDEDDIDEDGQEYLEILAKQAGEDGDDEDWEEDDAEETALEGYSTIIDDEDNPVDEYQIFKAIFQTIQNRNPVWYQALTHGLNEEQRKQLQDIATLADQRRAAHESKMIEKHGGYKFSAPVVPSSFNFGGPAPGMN
UniProt Q27J81, whole entry, looked up: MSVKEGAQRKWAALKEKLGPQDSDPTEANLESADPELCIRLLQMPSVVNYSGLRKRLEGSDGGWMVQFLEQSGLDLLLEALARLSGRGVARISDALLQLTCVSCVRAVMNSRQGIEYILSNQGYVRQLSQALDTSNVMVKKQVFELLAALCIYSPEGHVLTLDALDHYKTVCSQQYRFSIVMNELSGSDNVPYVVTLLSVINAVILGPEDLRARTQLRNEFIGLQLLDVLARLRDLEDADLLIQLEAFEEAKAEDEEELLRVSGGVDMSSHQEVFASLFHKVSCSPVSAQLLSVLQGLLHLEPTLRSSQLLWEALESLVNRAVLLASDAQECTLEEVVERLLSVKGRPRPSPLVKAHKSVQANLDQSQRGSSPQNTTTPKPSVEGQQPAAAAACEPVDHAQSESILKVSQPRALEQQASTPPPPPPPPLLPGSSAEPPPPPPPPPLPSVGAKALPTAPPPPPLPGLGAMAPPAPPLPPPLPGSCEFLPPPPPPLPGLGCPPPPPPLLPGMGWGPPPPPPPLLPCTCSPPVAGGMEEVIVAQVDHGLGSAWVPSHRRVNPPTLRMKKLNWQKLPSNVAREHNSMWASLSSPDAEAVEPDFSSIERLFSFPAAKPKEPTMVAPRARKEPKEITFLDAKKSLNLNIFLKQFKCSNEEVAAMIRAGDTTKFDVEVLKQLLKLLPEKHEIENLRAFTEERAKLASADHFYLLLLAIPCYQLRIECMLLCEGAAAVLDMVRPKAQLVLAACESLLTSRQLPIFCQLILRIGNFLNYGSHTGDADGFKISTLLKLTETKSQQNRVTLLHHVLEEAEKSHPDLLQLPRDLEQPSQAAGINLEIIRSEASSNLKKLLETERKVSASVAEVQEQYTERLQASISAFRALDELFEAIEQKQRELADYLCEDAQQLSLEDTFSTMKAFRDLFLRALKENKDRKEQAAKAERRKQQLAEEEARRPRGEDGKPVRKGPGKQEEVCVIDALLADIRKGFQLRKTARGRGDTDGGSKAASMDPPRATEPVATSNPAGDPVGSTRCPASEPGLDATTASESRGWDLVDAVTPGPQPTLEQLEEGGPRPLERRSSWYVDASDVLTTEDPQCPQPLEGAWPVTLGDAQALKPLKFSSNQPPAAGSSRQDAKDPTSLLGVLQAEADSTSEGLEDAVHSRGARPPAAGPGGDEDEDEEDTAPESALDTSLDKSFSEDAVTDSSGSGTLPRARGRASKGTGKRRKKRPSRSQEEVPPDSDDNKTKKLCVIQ
UniProt Q13576: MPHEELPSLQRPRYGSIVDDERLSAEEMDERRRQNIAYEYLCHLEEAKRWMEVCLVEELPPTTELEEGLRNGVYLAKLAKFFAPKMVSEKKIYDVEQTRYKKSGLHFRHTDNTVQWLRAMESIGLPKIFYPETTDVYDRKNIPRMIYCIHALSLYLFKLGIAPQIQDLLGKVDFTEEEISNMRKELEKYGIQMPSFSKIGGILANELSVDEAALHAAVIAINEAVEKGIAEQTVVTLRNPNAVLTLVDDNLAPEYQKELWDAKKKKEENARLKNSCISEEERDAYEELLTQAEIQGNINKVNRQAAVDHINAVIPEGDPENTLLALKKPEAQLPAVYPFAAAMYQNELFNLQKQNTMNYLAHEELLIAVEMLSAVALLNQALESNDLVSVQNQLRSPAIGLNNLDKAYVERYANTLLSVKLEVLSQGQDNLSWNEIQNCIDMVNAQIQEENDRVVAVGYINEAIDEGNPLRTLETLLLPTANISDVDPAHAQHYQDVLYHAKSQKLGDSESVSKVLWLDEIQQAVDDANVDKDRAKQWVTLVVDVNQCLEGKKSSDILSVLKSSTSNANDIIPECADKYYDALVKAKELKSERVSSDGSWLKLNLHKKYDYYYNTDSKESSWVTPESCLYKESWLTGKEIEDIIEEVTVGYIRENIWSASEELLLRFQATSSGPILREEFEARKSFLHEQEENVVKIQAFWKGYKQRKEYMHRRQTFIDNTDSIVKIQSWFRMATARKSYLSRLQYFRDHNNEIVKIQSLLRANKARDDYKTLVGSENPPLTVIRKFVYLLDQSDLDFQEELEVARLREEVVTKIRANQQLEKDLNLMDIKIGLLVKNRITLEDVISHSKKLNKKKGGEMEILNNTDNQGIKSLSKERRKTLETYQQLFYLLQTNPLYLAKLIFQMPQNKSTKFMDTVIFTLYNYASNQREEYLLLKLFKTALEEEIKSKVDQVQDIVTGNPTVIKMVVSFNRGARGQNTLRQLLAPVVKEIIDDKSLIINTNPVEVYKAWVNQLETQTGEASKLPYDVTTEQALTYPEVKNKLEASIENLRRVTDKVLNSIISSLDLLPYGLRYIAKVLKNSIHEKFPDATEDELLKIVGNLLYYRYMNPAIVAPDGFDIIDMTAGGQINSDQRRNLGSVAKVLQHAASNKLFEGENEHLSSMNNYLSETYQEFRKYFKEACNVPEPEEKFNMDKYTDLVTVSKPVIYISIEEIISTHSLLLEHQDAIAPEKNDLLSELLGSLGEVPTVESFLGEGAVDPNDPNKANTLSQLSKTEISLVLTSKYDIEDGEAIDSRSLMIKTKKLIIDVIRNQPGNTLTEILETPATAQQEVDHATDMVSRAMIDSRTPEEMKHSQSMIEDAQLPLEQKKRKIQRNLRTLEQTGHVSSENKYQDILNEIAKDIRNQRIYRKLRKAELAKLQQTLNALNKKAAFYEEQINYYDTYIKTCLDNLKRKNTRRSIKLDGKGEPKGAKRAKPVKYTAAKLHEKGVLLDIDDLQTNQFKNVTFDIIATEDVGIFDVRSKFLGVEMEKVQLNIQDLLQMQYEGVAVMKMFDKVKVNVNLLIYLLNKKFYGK

How did the “log2 mean competition ratio” value turn out when INTS1 C969 (UniProt Q8N201) was run?
The value was -0.107.

For IGHMBP2 C897 (UniProt P38935), which “log2 mean competition ratio” value is on record?
The value was -0.0897.

Which “log2 mean competition ratio” value does the source give for INTS1 C1866 (UniProt Q8N201) here?
The value was -0.00242.

For HSPA9 C366 (UniProt P38646), which “log2 mean competition ratio” value is on record?
Its value is -0.0673.

ICE1 C228 (UniProt Q9Y2F5) was tested. Which “log2 mean competition ratio” value did it give?
Its value is 0.33.

IGFBPL1 C115 was tested. Which “log2 mean competition ratio” value did it give?
Its value is -0.0979.

Which “log2 mean competition ratio” value does the source give for INPP5K C173 (UniProt Q9BT40) here?
The value was -0.0334.

For ILK C428 (UniProt Q13418), which “log2 mean competition ratio” value is on record?
The value was -0.00288.

With ICE1 C904 (UniProt Q9Y2F5) as the target, how does the “log2 mean competition ratio” value read?
The value was -0.133.

HSD17B11 C94 (UniProt Q8NBQ5) was tested. Which “log2 mean competition ratio” value did it give?
The value was 0.0831.

Which “log2 mean competition ratio” value does the source give for IPO4 C797 (UniProt Q8TEX9) here?
Its value is -0.118.

Which “log2 mean competition ratio” value does the source give for HSP90AA1 C572 (UniProt P07900) here?
The value was 0.0578.

Which “log2 mean competition ratio” value does the source give for ILK C346 (UniProt Q13418) here?
Its value is 0.0739.

How did the “log2 mean competition ratio” value turn out when ILKAP C312 (UniProt Q9H0C8) was run?
Its value is 0.181.

Which “log2 mean competition ratio” value does the source give for IPO7 C749 (UniProt O95373) here?
Its value is -0.213.

Which “log2 mean competition ratio” value does the source give for INF2 C650 (UniProt Q27J81) here?
The value was 0.143.

IGF2R C1042 (UniProt P11717) was tested. Which “log2 mean competition ratio” value did it give?
Its value is 0.0629.

For INPP4A C230 (UniProt Q96PE3), which “log2 mean competition ratio” value is on record?
Its value is -0.0889.

How did the “log2 mean competition ratio” value turn out when IPO7 C415 (UniProt O95373) was run?
The value was 0.0532.

Which “log2 mean competition ratio” value does the source give for HTT C1998 (UniProt P42858) here?
Its value is 0.545.

IPO9 C864 (UniProt Q96P70) was tested. Which “log2 mean competition ratio” value did it give?
Its value is 0.32.

For HUWE1 C3658, which “log2 mean competition ratio” value is on record?
Its value is -0.44.

INF2 C172 (UniProt Q27J81) was tested. Which “log2 mean competition ratio” value did it give?
The value was 0.168.

How did the “log2 mean competition ratio” value turn out when HUWE1 C3213 was run?
Its value is 0.896.

For INTS5 C485 (UniProt Q6P9B9), which “log2 mean competition ratio” value is on record?
The value was 0.172.

For INTS6 C219 (UniProt Q9UL03), which “log2 mean competition ratio” value is on record?
Its value is -0.0427.

How did the “log2 mean competition ratio” value turn out when HTATSF1 C512 (UniProt O43719) was run?
Its value is -0.17.

How did the “log2 mean competition ratio” value turn out when HPS6 C408 (UniProt Q86YV9) was run?
Its value is -0.186.

How did the “log2 mean competition ratio” value turn out when HUWE1 C467 was run?
Its value is -0.00967.

IKBKG C167 (UniProt Q9Y6K9) was tested. Which “log2 mean competition ratio” value did it give?
Its value is -0.209.

For IRF2BP1 C546 (UniProt Q8IU81), which “log2 mean competition ratio” value is on record?
Its value is -0.00301.

How did the “log2 mean competition ratio” value turn out when ILKAP C135 (UniProt Q9H0C8) was run?
Its value is -0.153.

How did the “log2 mean competition ratio” value turn out when INTS1 C1440 (UniProt Q8N201) was run?
Its value is 0.0959.

HTT C823 (UniProt P42858) was tested. Which “log2 mean competition ratio” value did it give?
The value was -0.185.

HUWE1 C3361 was tested. Which “log2 mean competition ratio” value did it give?
The value was -0.142.

How did the “log2 mean competition ratio” value turn out when HPS6 C692 (UniProt Q86YV9) was run?
The value was -0.399.

For IQGAP2 C276 (UniProt Q13576), which “log2 mean competition ratio” value is on record?
The value was -0.0933.

For IPO9 C90 (UniProt Q96P70), which “log2 mean competition ratio” value is on record?
The value was -0.289.

Same assay, conditions: 200 µM; treatment time: 4 h; cell line lysate: HEK293T

How did the “log2 mean competition ratio” value turn out when INTS1 C969 (UniProt Q8N201) was run?
Its value is 0.781.

For IGHMBP2 C897 (UniProt P38935), which “log2 mean competition ratio” value is on record?
The value was 0.103.

For INTS1 C1866 (UniProt Q8N201), which “log2 mean competition ratio” value is on record?
The value was 0.272.

Which “log2 mean competition ratio” value does the source give for HSPA9 C366 (UniProt P38646) here?
The value was -0.135.

For ICE1 C228 (UniProt Q9Y2F5), which “log2 mean competition ratio” value is on record?
Its value is 0.306.

How did the “log2 mean competition ratio” value turn out when IGFBPL1 C115 was run?
The value was 0.123.

With INPP5K C173 (UniProt Q9BT40) as the target, how does the “log2 mean competition ratio” value read?
The value was -0.0969.

With ILK C428 (UniProt Q13418) as the target, how does the “log2 mean competition ratio” value read?
The value was 0.111.

ICE1 C904 (UniProt Q9Y2F5) was tested. Which “log2 mean competition ratio” value did it give?
The value was 0.4.

With HSD17B11 C94 (UniProt Q8NBQ5) as the target, how does the “log2 mean competition ratio” value read?
The value was 0.406.

How did the “log2 mean competition ratio” value turn out when IPO4 C797 (UniProt Q8TEX9) was run?
Its value is 0.108.

Which “log2 mean competition ratio” value does the source give for HSP90AA1 C572 (UniProt P07900) here?
The value was 0.24.

For ILK C346 (UniProt Q13418), which “log2 mean competition ratio” value is on record?
Its value is 0.214.

For ILKAP C312 (UniProt Q9H0C8), which “log2 mean competition ratio” value is on record?
Its value is -0.078.

Which “log2 mean competition ratio” value does the source give for IPO7 C749 (UniProt O95373) here?
The value was 0.115.

How did the “log2 mean competition ratio” value turn out when INF2 C650 (UniProt Q27J81) was run?
The value was 0.126.

With IGF2R C1042 (UniProt P11717) as the target, how does the “log2 mean competition ratio” value read?
Its value is 0.123.

How did the “log2 mean competition ratio” value turn out when INPP4A C230 (UniProt Q96PE3) was run?
Its value is -0.305.

How did the “log2 mean competition ratio” value turn out when IPO7 C415 (UniProt O95373) was run?
The value was -0.51.

Which “log2 mean competition ratio” value does the source give for HTT C1998 (UniProt P42858) here?
Its value is -0.0302.

How did the “log2 mean competition ratio” value turn out when IPO9 C864 (UniProt Q96P70) was run?
Its value is -0.0605.

Which “log2 mean competition ratio” value does the source give for HUWE1 C3658 here?
The value was -0.094.

INF2 C172 (UniProt Q27J81) was tested. Which “log2 mean competition ratio” value did it give?
The value was -0.167.

Which “log2 mean competition ratio” value does the source give for HUWE1 C3213 here?
Its value is -0.0997.

INTS5 C485 (UniProt Q6P9B9) was tested. Which “log2 mean competition ratio” value did it give?
Its value is -0.103.

INTS6 C219 (UniProt Q9UL03) was tested. Which “log2 mean competition ratio” value did it give?
Its value is 0.00328.

Which “log2 mean competition ratio” value does the source give for HTATSF1 C512 (UniProt O43719) here?
Its value is 0.142.

How did the “log2 mean competition ratio” value turn out when HPS6 C408 (UniProt Q86YV9) was run?
The value was -0.114.

With HUWE1 C467 as the target, how does the “log2 mean competition ratio” value read?
The value was 0.338.

IKBKG C167 (UniProt Q9Y6K9) was tested. Which “log2 mean competition ratio” value did it give?
The value was -0.0143.

With IRF2BP1 C546 (UniProt Q8IU81) as the target, how does the “log2 mean competition ratio” value read?
Its value is -0.176.

ILKAP C135 (UniProt Q9H0C8) was tested. Which “log2 mean competition ratio” value did it give?
The value was 0.0966.

For INTS1 C1440 (UniProt Q8N201), which “log2 mean competition ratio” value is on record?
The value was 0.322.

HTT C823 (UniProt P42858) was tested. Which “log2 mean competition ratio” value did it give?
Its value is 0.423.

Which “log2 mean competition ratio” value does the source give for HUWE1 C3361 here?
Its value is 0.24.

Which “log2 mean competition ratio” value does the source give for HPS6 C692 (UniProt Q86YV9) here?
Its value is 0.153.

How did the “log2 mean competition ratio” value turn out when IQGAP2 C276 (UniProt Q13576) was run?
Its value is -0.0505.

With IPO9 C90 (UniProt Q96P70) as the target, how does the “log2 mean competition ratio” value read?
Its value is -0.0896.

The targets below were run with ClCC(=O)N[C@H]1CCCc2ccccc12 in the same assay as above. Conditions: 50 µM; treatment time: 4 h; cell line lysate: HEK293T.
Protocol: as §1

INTS1 C1866 (UniProt Q8N201) was tested. Which “log2 mean competition ratio” value did it give?
The value was 0.201.

Which “log2 mean competition ratio” value does the source give for IGFBPL1 C115 here?
Its value is -0.147.

With ICE1 C904 (UniProt Q9Y2F5) as the target, how does the “log2 mean competition ratio” value read?
Its value is -0.515.

With HSD17B11 C94 (UniProt Q8NBQ5) as the target, how does the “log2 mean competition ratio” value read?
Its value is -0.0224.

For IGF2R C1042 (UniProt P11717), which “log2 mean competition ratio” value is on record?
The value was -0.467.

HTT C1998 (UniProt P42858) was tested. Which “log2 mean competition ratio” value did it give?
Its value is -0.261.

For IPO9 C864 (UniProt Q96P70), which “log2 mean competition ratio” value is on record?
The value was 0.892.

How did the “log2 mean competition ratio” value turn out when HUWE1 C3213 was run?
The value was 0.623.

HPS6 C408 (UniProt Q86YV9) was tested. Which “log2 mean competition ratio” value did it give?
The value was 0.224.

ILKAP C135 (UniProt Q9H0C8) was tested. Which “log2 mean competition ratio” value did it give?
Its value is -0.143.

For HTT C823 (UniProt P42858), which “log2 mean competition ratio” value is on record?
The value was -0.136.

Which “log2 mean competition ratio” value does the source give for IQGAP2 C276 (UniProt Q13576) here?
Its value is -0.277.
